# Measurements as given in the supplement of paper PMC11732987, “Enantioselective OTUD7B fragment discovery through chemoproteomics screening and high-throughput optimisation” (Communications Chemistry, 2025).
# Protein sequences, listed by entry. Tags and fused reporters are not part of them. Lines headed by an entry give the natural chain unless they say otherwise; changes in a name come on top.
# UniProt Q68DH5: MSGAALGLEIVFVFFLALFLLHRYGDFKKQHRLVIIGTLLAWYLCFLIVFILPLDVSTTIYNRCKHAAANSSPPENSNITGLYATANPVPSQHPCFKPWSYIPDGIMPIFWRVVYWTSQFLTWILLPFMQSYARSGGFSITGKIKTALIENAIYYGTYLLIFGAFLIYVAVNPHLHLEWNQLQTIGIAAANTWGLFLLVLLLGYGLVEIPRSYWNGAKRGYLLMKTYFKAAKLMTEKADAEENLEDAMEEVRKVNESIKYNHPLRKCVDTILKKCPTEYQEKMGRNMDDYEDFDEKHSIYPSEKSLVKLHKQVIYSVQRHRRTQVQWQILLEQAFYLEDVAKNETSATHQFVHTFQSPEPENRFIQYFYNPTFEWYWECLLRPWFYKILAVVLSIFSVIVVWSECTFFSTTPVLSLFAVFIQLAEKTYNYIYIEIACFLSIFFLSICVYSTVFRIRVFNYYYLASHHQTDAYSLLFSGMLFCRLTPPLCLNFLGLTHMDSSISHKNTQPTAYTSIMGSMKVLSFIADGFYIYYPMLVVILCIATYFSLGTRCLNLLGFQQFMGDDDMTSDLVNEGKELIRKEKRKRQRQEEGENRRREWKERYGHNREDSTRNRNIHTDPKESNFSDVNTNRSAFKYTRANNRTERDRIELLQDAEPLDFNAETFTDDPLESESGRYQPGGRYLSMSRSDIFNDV
# UniProt P01130: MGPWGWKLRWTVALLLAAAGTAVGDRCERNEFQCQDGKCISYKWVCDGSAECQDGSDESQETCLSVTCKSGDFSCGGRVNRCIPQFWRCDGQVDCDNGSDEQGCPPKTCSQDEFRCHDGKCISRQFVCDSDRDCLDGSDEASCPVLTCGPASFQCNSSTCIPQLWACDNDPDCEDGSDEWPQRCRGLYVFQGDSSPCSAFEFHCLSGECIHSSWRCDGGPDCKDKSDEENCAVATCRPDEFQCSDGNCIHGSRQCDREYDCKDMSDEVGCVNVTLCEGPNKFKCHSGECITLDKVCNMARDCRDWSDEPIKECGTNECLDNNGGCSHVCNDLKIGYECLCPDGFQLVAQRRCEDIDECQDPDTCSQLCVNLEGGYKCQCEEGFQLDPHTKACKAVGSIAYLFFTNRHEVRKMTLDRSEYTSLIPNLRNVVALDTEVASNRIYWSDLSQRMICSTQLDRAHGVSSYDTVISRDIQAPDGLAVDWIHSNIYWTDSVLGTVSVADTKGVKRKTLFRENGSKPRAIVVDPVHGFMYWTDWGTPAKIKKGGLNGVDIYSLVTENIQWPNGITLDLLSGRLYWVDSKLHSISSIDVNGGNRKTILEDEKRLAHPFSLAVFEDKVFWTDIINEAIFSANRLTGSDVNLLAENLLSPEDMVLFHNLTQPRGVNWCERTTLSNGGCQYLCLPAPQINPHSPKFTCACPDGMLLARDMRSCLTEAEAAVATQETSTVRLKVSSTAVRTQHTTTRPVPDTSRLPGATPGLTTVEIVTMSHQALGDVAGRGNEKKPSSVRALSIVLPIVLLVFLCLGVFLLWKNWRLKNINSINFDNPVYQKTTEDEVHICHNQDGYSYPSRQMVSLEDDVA
# UniProt P49916: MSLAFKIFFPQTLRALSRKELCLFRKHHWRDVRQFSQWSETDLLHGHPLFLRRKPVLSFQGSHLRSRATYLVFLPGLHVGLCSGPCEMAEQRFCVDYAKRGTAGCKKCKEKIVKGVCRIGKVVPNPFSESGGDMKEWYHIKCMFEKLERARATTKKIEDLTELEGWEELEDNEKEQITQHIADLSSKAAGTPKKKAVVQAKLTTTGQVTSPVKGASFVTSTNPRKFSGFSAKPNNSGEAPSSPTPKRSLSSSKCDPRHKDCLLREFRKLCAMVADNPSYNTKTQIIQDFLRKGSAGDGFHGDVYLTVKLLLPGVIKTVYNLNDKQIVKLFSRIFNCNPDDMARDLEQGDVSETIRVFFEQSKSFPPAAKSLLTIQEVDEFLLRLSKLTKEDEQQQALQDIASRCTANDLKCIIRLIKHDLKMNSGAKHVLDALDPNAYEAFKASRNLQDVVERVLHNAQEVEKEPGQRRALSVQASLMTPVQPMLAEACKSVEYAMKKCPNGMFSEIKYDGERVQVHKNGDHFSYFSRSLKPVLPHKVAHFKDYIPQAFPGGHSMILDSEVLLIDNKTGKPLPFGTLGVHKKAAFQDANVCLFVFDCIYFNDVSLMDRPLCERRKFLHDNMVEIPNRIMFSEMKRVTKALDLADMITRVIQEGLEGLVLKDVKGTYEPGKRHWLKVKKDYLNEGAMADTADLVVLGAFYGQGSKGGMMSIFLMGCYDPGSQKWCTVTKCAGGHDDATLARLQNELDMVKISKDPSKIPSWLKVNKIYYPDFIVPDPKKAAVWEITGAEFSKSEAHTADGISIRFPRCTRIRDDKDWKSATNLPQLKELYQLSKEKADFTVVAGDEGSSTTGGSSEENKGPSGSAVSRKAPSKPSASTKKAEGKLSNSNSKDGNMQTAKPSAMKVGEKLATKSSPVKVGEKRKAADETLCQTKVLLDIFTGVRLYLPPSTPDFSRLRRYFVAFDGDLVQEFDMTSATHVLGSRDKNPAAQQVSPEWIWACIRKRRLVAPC
# This is one part of the list. The data scatter; read single values as rough.
# What was measured:
# [1] = compound: ClCC(=O)N[C@@H]1CCCc2ccccc12; assay: log2 mean competition ratio of IA-DTB cysteine labelling (DMSO/compound) (log2 ratio); higher = stronger cysteine engagement by compound; conditions: treatment time: 4 h, cell line lysate: HEK293T
# Protocol: (§1)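 IA-DTB competitive cysteine chemoproteomics in HEK293T RIPA lysate. Lysates were treated with compound 29 or 30 at 50 or 200 µM for 4 h, then IA-DTB (500 µM, 1 h), trypsin-digested, NeutrAvidin-enriched and analysed by diaPASEF. Competition ratio = intensity DMSO / intensity compound (n=4 treated, n=64 DMSO); binding: mean log2 CR ≥ 1 and p ≤ 0.05 plus QC filters. Target is the cysteine site.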
# [2] = compound: ClCC(=O)N[C@H]1CCCc2ccccc12; assay: as above; conditions: treatment time: 4 h, cell line lysate: HEK293T
# Protocol: as §1
Target,log2 mean competition ratio ([1]; 50 µM),log2 mean competition ratio ([1]; 200 µM),log2 mean competition ratio ([2]; 50 µM),log2 mean competition ratio ([2]; 200 µM)
LMBRD2 C267 (UniProt Q68DH5),-0.0276,0.00464,0.0622,0.0351
LDLR C34 (UniProt P01130),-0.17,0.407,-0.228,0.259
KIF7 C647,0.00407,0.147,0.0579,0.334
LIG3 C336 (UniProt P49916),0.408,0.102,0.229,0.0724
